Data as given in PubChem BioAssay AID1259308 (NCATS, 2017).
Screen: 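Candidate targets for better recombinant protein yield in mammalian cells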 (primary screen). Cell system: human HEK293 embryonic kidney cells stably expressing firefly luciferase (HEK-CMV-Luc2-Hygro). Knock-down reagent: single siRNA against human genes, 0.8 pmol siRNA per well. Timing: 72 h. Measurement: 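Luciferase light (ONE-Glo) measured on one replicate plate set and viability (CellTiter-Glo) on the other, scaled to a negative control siRNA, with robust z-scores and luciferase per cell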. Scale: total luciferase, z-score: higher = more reporter protein produced. Rule for the call: 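Active when the median/MAD z-score for overall luciferase is greater than 3; a gene was taken forward for validation with new siRNAs if at least two of its three siRNAs passed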. Meaning of the calls: active = raised luciferase; inactive = no rise.
Here is an unselected part of about 59,000 deposited reagents. Over the whole deposit, about 1,510 (2.6%) were called active. 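Calls use total luciferase alone and ignore viability, so some active siRNAs may act by altering cell number.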 Entries without a mark were called inactive. Reagents against one gene are numbered here. Further read-outs or replicates are left out here.

KRTAP5-1 #1
- total luciferase, z-score: 0.0868

KRTAP5-1 #2
- total luciferase, z-score: 2.1

KRTAP5-1 #3
- total luciferase, z-score: -0.408

RPL26P30 #1
- total luciferase, z-score: 0.57

RPL26P30 #2
- total luciferase, z-score: -0.841

RPL26P30 #3
- total luciferase, z-score: -2.38

COL14A1 #1
- total luciferase, z-score: 0.0695

COL14A1 #2
- total luciferase, z-score: 1.85

COL14A1 #3
- total luciferase, z-score: -0.513

CRB3 #1
- total luciferase, z-score: 1.14

CRB3 #2
- total luciferase, z-score: -1.53

CRB3 #3
- total luciferase, z-score: 0.65

FGF2 #1
- total luciferase, z-score: 1.93

FGF2 #2
- total luciferase, z-score: 0.144

FGF2 #3
- total luciferase, z-score: 1.5

PCDHGB2 #1
- total luciferase, z-score: 0.131

PCDHGB2 #2
- total luciferase, z-score: -0.505

PCDHGB2 #3
- total luciferase, z-score: -0.639

CDK2AP1 #1
- total luciferase, z-score: 0.813

CDK2AP1 #2
- total luciferase, z-score: 0.563

CDK2AP1 #3
- total luciferase, z-score: -0.292

URB1-DT #1
- total luciferase, z-score: -0.568

URB1-DT #2
- total luciferase, z-score: 0.569

URB1-DT #3
- total luciferase, z-score: -0.974

TCTA #1
- total luciferase, z-score: 0.276

TCTA #2
- total luciferase, z-score: -0.15

TCTA #3
- total luciferase, z-score: 1.87

H4C5 #1
- total luciferase, z-score: -0.731

H4C5 #2
- total luciferase, z-score: -0.554

H4C5 #3
- total luciferase, z-score: 2.1

LINC03086 #1
- total luciferase, z-score: -0.12

LINC03086 #2
- total luciferase, z-score: 1.66

LINC03086 #3
- total luciferase, z-score: -1.06

PYGO1 #1
- total luciferase, z-score: 0.817

PYGO1 #2
- total luciferase, z-score: -0.375

PYGO1 #3
- total luciferase, z-score: 0.0769

RNF180 #1
- total luciferase, z-score: 1.27

RNF180 #2
- total luciferase, z-score: -0.527

RNF180 #3
- total luciferase, z-score: -1.53

LINC01548 #1
- total luciferase, z-score: 0.791

LINC01548 #2
- total luciferase, z-score: 0.0623

LINC01548 #3
- total luciferase, z-score: -0.911

Laid out differently: entries from further up
{"gene": "LINC03086", "reagent": 2, "total luciferase, z-score": 1.66}
{"gene": "LINC03086", "reagent": 3, "total luciferase, z-score": -1.06}
{"gene": "PYGO1", "reagent": 1, "total luciferase, z-score": 0.817}
{"gene": "PYGO1", "reagent": 2, "total luciferase, z-score": -0.375}
{"gene": "PYGO1", "reagent": 3, "total luciferase, z-score": 0.0769}
{"gene": "RNF180", "reagent": 1, "total luciferase, z-score": 1.27}
{"gene": "RNF180", "reagent": 2, "total luciferase, z-score": -0.527}
